Results published in patent publication US20200222474A1, “COMPOSITIONS AND METHODS FOR INCREASING PHYTOCHEMICAL BIOAVAILABLITY AND BIOACTIVITY” (North Carolina State University, priority 2017, published 2020).
Further values from the same series stand in other lists.

Tested on: L. acidophilus NCFM
Assay: RNA-seq transcriptional analysis of L. acidophilus NCFM growing on plant glycosides
Format: cell-based, Lactobacillus acidophilus
[1] = LBA1974 Pyruvate oxidase, COG EH
[2] = gene LBA0802 (Hypothetical protein)
[3] = gene LBA0863 (Hypothetical protein)
[4] = gene LBA0878 (Hypothetical protein)
[5] = gene LBA0888 (Hypothetical protein)
[6] = gene LBA0987 (Hypothetical protein)
[7] = gene LBA1019 (Mucus binding protein)
[8] = gene LBA1020 (Mucus binding protein)
[9] = gene LBA1227 (Hypothetical protein)
[10] = gene LBA1370 (Putative bacteriophage-related protein)
[11] = gene LBA1409 (Hypothetical protein LBA1409)
[12] = gene LBA1460 (Mucus binding protein precursor)
[13] = gene LBA1461 (Putative regulator)
[14] = gene LBA1539 (Hypothetical protein)
[15] = gene LBA1608 (Hypothetical protein)
[16] = gene LBA1612 (Fibrinogen-binding protein)
[17] = gene LBA1652 (Mucus binding protein precursor Mub)
[18] = gene LBA1655 (Hypothetical protein)
[19] = gene LBA1686 (Hypothetical protein)
[20] = gene LBA1693 (Hypothetical protein)
[21] = gene LBA1694 (Hypothetical protein)
[22] = gene LBA1709 (Mucus binding protein precursor Mub)
[23] = gene LBA1784 (Hypothetical protein)
[24] = gene LBA1786 (Hypothetical protein)
[25] = gene LBA1791 (Hypothetical protein)
[26] = gene LBA1792 (Hypothetical protein)
[27] = gene LBA1794 (Gassericin K7 B accessory protein)
[28] = gene LBA1797 (Hypothetical protein)
[29] = gene LBA1801 (Hypothetical protein)
[30] = gene LBA1802 (Hypothetical protein)
[31] = gene LBA1803 (Hypothetical protein.)
[32] = gene LBA1804 (Hypothetical protein)
[33] = gene LBA1805 (Hypothetical protein)
[34] = gene without printed locus tag, last line of Table 5 (Hypothetical protein)

Q: What does the source list for `N#C[C@H](O[C@@H]1O[C@H](CO[C@@H]2O[C@H](CO)[C@@H](O)[C@H](O)[C@H]2O)[C@@H](O)[C@H](O)[C@H]1O)c1ccccc1` [Amygdalin]?
A: Log2 differential normalized TPM ratio compared to glucose [1]: 5.5; Log2 differential normalized TPM ratio compared to lactose [1]: 3.1; Transcripts per million (rpm) [1]: 3124.6 rpm; Log2 differential normalized TPM ratio compared to glucose [2]: 2.3; Log2 differential normalized TPM ratio compared to lactose [2]: 2; Transcripts per million (rpm) [2]: 133.2 rpm; Log2 differential normalized TPM ratio compared to glucose [3]: 0.4; Log2 differential normalized TPM ratio compared to lactose [3]: −0.4; Transcripts per million (rpm) [3]: 53.7 rpm; Log2 differential normalized TPM ratio compared to glucose [4]: 2; Log2 differential normalized TPM ratio compared to lactose [4]: 0.9; Transcripts per million (rpm) [4]: 2.5 rpm; Log2 differential normalized TPM ratio compared to glucose [5]: 2.5; Log2 differential normalized TPM ratio compared to lactose [5]: 1.4; Transcripts per million (rpm) [5]: 138.9 rpm; Log2 differential normalized TPM ratio compared to glucose [6]: 2.8; Log2 differential normalized TPM ratio compared to lactose [6]: −0.2; Transcripts per million (rpm) [6]: 3.7 rpm; Log2 differential normalized TPM ratio compared to glucose [7]: 3.1; Log2 differential normalized TPM ratio compared to lactose [7]: 2.1; Transcripts per million (rpm) [7]: 91.3 rpm; Log2 differential normalized TPM ratio compared to glucose [8]: −1.2; Log2 differential normalized TPM ratio compared to lactose [8]: −1.3; Transcripts per million (rpm) [8]: 49.4 rpm; Log2 differential normalized TPM ratio compared to glucose [9]: 3.2; Log2 differential normalized TPM ratio compared to lactose [9]: 2.7; Transcripts per million (rpm) [9]: 523.3 rpm; Log2 differential normalized TPM ratio compared to glucose [10]: 2; Log2 differential normalized TPM ratio compared to lactose [10]: 1.5; Transcripts per million (rpm) [10]: 123 rpm; Log2 differential normalized TPM ratio compared to glucose [11]: 2.3; Log2 differential normalized TPM ratio compared to lactose [11]: 1.7; Transcripts per million (rpm) [11]: 18.3 rpm; Log2 differential normalized TPM ratio compared to glucose [12]: −0.9; Log2 differential normalized TPM ratio compared to lactose [12]: −5.1; Transcripts per million (rpm) [12]: 4.5 rpm; Log2 differential normalized TPM ratio compared to glucose [13]: −1; Log2 differential normalized TPM ratio compared to lactose [13]: −5.9; Transcripts per million (rpm) [13]: 2.3 rpm; Log2 differential normalized TPM ratio compared to glucose [14]: 1.3; Log2 differential normalized TPM ratio compared to lactose [14]: −1.5; Transcripts per million (rpm) [14]: 47.1 rpm; Log2 differential normalized TPM ratio compared to glucose [15]: 3; Log2 differential normalized TPM ratio compared to lactose [15]: 2.3; Transcripts per million (rpm) [15]: 139.8 rpm; Log2 differential normalized TPM ratio compared to glucose (gene LBA1611 (Surface protein)): 1.1; Log2 differential normalized TPM ratio compared to lactose (gene LBA1611 (Surface protein)): 1.6; Transcripts per million (rpm) (gene LBA1611 (Surface protein)): 290.9 rpm; Log2 differential normalized TPM ratio compared to glucose [16]: 1.3; Log2 differential normalized TPM ratio compared to lactose [16]: 1.2; Transcripts per million (rpm) [16]: 270.7 rpm; Log2 differential normalized TPM ratio compared to glucose (gene LBA1633 (Surface protein)): 2.3; Log2 differential normalized TPM ratio compared to lactose (gene LBA1633 (Surface protein)): 1.1; Transcripts per million (rpm) (gene LBA1633 (Surface protein)): 29.1 rpm; Log2 differential normalized TPM ratio compared to glucose [17]: 3; Log2 differential normalized TPM ratio compared to lactose [17]: 2.4; Transcripts per million (rpm) [17]: 73.8 rpm; Log2 differential normalized TPM ratio compared to glucose [18]: 2.1; Log2 differential normalized TPM ratio compared to lactose [18]: 1.8; Transcripts per million (rpm) [18]: 14.5 rpm; Log2 differential normalized TPM ratio compared to glucose [19]: 2.5; Log2 differential normalized TPM ratio compared to lactose [19]: 2.8; Transcripts per million (rpm) [19]: 826.6 rpm; Log2 differential normalized TPM ratio compared to glucose [20]: −0.6; Log2 differential normalized TPM ratio compared to lactose [20]: −1.6; Transcripts per million (rpm) [20]: 57.4 rpm; Log2 differential normalized TPM ratio compared to glucose [21]: −1.3; Log2 differential normalized TPM ratio compared to lactose [21]: −2.3; Transcripts per million (rpm) [21]: 28.8 rpm; Log2 differential normalized TPM ratio compared to glucose [22]: 4.5; Log2 differential normalized TPM ratio compared to lactose [22]: 4; Transcripts per million (rpm) [22]: 48.2 rpm; Log2 differential normalized TPM ratio compared to glucose [23]: 1.6; Log2 differential normalized TPM ratio compared to lactose [23]: −0.3; Transcripts per million (rpm) [23]: 107.9 rpm; Log2 differential normalized TPM ratio compared to glucose [24]: 1.8; Log2 differential normalized TPM ratio compared to lactose [24]: −0.4; Transcripts per million (rpm) [24]: 69.4 rpm; Log2 differential normalized TPM ratio compared to glucose [25]: 1.6; Log2 differential normalized TPM ratio compared to lactose [25]: −0.6; Transcripts per million (rpm) [25]: 44.6 rpm; Log2 differential normalized TPM ratio compared to glucose [26]: 1.6; Log2 differential normalized TPM ratio compared to lactose [26]: −0.7; Transcripts per million (rpm) [26]: 36.6 rpm; Log2 differential normalized TPM ratio compared to glucose [27]: 2.2; Log2 differential normalized TPM ratio compared to lactose [27]: −0.1; Transcripts per million (rpm) [27]: 54.4 rpm; Log2 differential normalized TPM ratio compared to glucose [28]: 4.7; Log2 differential normalized TPM ratio compared to lactose [28]: −0.1; Transcripts per million (rpm) [28]: 2913.5 rpm; Log2 differential normalized TPM ratio compared to glucose [29]: 3.1; Log2 differential normalized TPM ratio compared to lactose [29]: 0.7; Transcripts per million (rpm) [29]: 30.2 rpm; Log2 differential normalized TPM ratio compared to glucose [30]: 3.2; Log2 differential normalized TPM ratio compared to lactose [30]: 0.6; Transcripts per million (rpm) [30]: 55.9 rpm; Log2 differential normalized TPM ratio compared to glucose [31]: 2.9; Log2 differential normalized TPM ratio compared to lactose [31]: −0.1; Transcripts per million (rpm) [31]: 81.4 rpm; Log2 differential normalized TPM ratio compared to glucose [32]: 3.4; Log2 differential normalized TPM ratio compared to lactose [32]: −0.3; Transcripts per million (rpm) [32]: 162.2 rpm; Log2 differential normalized TPM ratio compared to glucose [33]: 3.7; Log2 differential normalized TPM ratio compared to lactose [33]: −0.2; Transcripts per million (rpm) [33]: 319.7 rpm; Log2 differential normalized TPM ratio compared to glucose [34]: 1.2; Log2 differential normalized TPM ratio compared to lactose [34]: 1; Transcripts per million (rpm) [34]: 35.4 rpm
